{
  "source": "paper PMC3692431",
  "about": "“Anticonvulsant Activity of B2, an Adenosine Analog, on Chemical Convulsant-Induced Seizures” (PLoS ONE, 2013)",
  "tested_on": "picrotoxin-induced seizures",
  "assay_type": "in vivo, mice",
  "conditions": "10 mg/kg i.p.; picrotoxin 3.5 mg/kg; P<0.001",
  "experimental": "KA was dissolved in saline and the pH was adjusted to neutrality. The final concentration of KA was 0.7 µg/µl, and the convulsant dose was 1 µl (i.c.v.). […] The selective adenosine receptor antagonist DPCPX or SCH58261 was administered (i.p.) 5 min before administration of B2 or vehicle.\nThe latency of seizure onset, number of seizures, and mortality rate was recorded for the picrotoxin-injected mice. For the PTZ-injected mice, we recorded the latency of seizure onset, number of seizures, and presence of clonic seizures.",
  "data": [
    {"compound": "CN1C(=O)CN=C(c2ccccc2)c2cc(Cl)ccc21", "note": "[Diazepam, diazepam, reference compound]", "values": [
      {"measurement": "protection against picrotoxin-induced seizures", "result": "significantly protected"}
    ]}
  ]
}
